Measurements reported in PubChem BioAssay AID1053209 (Peter MacCallum Cancer Centre, 2014)
Assay: 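Follow-up of single siRNAs that strengthen doxorubicin killing in osteosarcoma cells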 (follow-up of hits). Cell system: mouse primary osteosarcoma cells. Knock-down reagent: single siRNA against mouse genes, 25 nM (text also states 40 nM). Duration: about 120 h (48 h before drug, then 72 h with drug). Conditions: doxorubicin 100 nM (about IC30-40), added 48 h after transfection, for 72 h. Detection: 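Viability measured by ATP luminescence with and without doxorubicin, each replicate scaled to non-targeting siRNA NT1, averaged over two replicates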. Scale: viability with doxorubicin, vs NT1: higher = more viable cells under doxorubicin; viability without drug, vs NT1: higher = more viable cells without drug. Rule for the call: 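Active when doxorubicin viability is at most 0.7 of NT1 and drug-free viability lies between 0.7 and 1.1, class LC dox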.
In all, the deposit lists about 1,580 reagents; shown is an unselected part. Over the whole deposit, 207 (13%) got an active call. 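Rows are single siRNAs; four siRNAs per gene were tested, a gene counting as confirmed only when at least two agree.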 A number with no mark means an inactive call. Reagents against one gene are numbered here. Further read-outs or replicates are left out here. No sequences are given here.

For Rpa3 (GeneID 68240) #1, the values are combined effect class high viability only with doxorubicin; viability with doxorubicin, vs NT1 = 1.12; viability without drug, vs NT1 = 1.04.
Knock-down of Rpa3 (GeneID 68240) #2 resulted in: combined effect class low viability only with doxorubicin; normal without drug (active); viability with doxorubicin, vs NT1 = 0.4; viability without drug, vs NT1 = 0.88.
After knock-down of Rpa3 (GeneID 68240) #3 the results were combined effect class low viability only with doxorubicin; normal without drug (active); viability with doxorubicin, vs NT1 = 0.62; viability without drug, vs NT1 = 0.86.
Rpa3 (GeneID 68240) #4 gave combined effect class low viability with and without drug; viability with doxorubicin, vs NT1 = 0.31; viability without drug, vs NT1 = 0.56.
Ist1 (GeneID 71955) #1 showed combined effect class low viability only with doxorubicin; normal without drug (active); viability with doxorubicin, vs NT1 = 0.69; viability without drug, vs NT1 = 0.89.
Ist1 (GeneID 71955) #2 gave combined effect class normal viability with and without drug; viability with doxorubicin, vs NT1 = 0.92; viability without drug, vs NT1 = 0.97.
For Ist1 (GeneID 71955) #3 the deposit lists combined effect class normal viability with and without drug; viability with doxorubicin, vs NT1 = 0.9; viability without drug, vs NT1 = 0.85.
Against Ist1 (GeneID 71955) #4 the deposit lists combined effect class low viability only with doxorubicin; normal without drug (active); viability with doxorubicin, vs NT1 = 0.45; viability without drug, vs NT1 = 0.74.
Against Clrn1 (GeneID 229320) #1, the values are combined effect class low viability only with doxorubicin; normal without drug (active); viability with doxorubicin, vs NT1 = 0.64; viability without drug, vs NT1 = 0.84.
Clrn1 (GeneID 229320) #2 showed combined effect class high viability only with doxorubicin; viability with doxorubicin, vs NT1 = 1.1; viability without drug, vs NT1 = 1.
Clrn1 (GeneID 229320) #3 showed combined effect class normal viability with and without drug; viability with doxorubicin, vs NT1 = 0.94; viability without drug, vs NT1 = 0.99.
Clrn1 (GeneID 229320) #4 scored combined effect class normal viability with and without drug; viability with doxorubicin, vs NT1 = 0.88; viability without drug, vs NT1 = 0.94.
Rps28 (GeneID 54127) #1 scored combined effect class low viability only with doxorubicin; normal without drug (active); viability with doxorubicin, vs NT1 = 0.68; viability without drug, vs NT1 = 0.84.
Rps28 (GeneID 54127) #2 scored combined effect class low viability with and without drug; viability with doxorubicin, vs NT1 = 0.4; viability without drug, vs NT1 = 0.64.
Silencing of Rps28 (GeneID 54127) #3 gave: combined effect class low viability with and without drug; viability with doxorubicin, vs NT1 = 0.25; viability without drug, vs NT1 = 0.41.
Rps28 (GeneID 54127) #4 scored combined effect class low viability only with doxorubicin; normal without drug (active); viability with doxorubicin, vs NT1 = 0.57; viability without drug, vs NT1 = 0.78.
Smu1 (GeneID 74255) #1 showed combined effect class normal viability with and without drug; viability with doxorubicin, vs NT1 = 0.88; viability without drug, vs NT1 = 0.86.
Smu1 (GeneID 74255) #2 scored combined effect class normal viability with and without drug; viability with doxorubicin, vs NT1 = 0.94; viability without drug, vs NT1 = 1.04.
With knock-down of Smu1 (GeneID 74255) #3, the record shows combined effect class low viability only with doxorubicin; normal without drug (active); viability with doxorubicin, vs NT1 = 0.67; viability without drug, vs NT1 = 0.84.
Smu1 (GeneID 74255) #4 gave combined effect class low viability with and without drug; viability with doxorubicin, vs NT1 = 0.15; viability without drug, vs NT1 = 0.33.
Against Psmd11 (GeneID 69077) #1 the deposit lists combined effect class low viability with and without drug; viability with doxorubicin, vs NT1 = 0.22; viability without drug, vs NT1 = 0.36.
For Psmd11 (GeneID 69077) #2, the values are combined effect class low viability with and without drug; viability with doxorubicin, vs NT1 = 0.38; viability without drug, vs NT1 = 0.69.
With knock-down of Psmd11 (GeneID 69077) #3, the record shows combined effect class low viability only with doxorubicin; normal without drug (active); viability with doxorubicin, vs NT1 = 0.64; viability without drug, vs NT1 = 0.74.
Psmd11 (GeneID 69077) #4 gave combined effect class low viability only with doxorubicin; normal without drug (active); viability with doxorubicin, vs NT1 = 0.48; viability without drug, vs NT1 = 0.74.

Not a retest: 3 of the entries above.
Smu1 (GeneID 74255) #4: combined effect class = low viability with and without drug; viability with doxorubicin, vs NT1 = 0.15; viability without drug, vs NT1 = 0.33
Psmd11 (GeneID 69077) #1: combined effect class = low viability with and without drug; viability with doxorubicin, vs NT1 = 0.22; viability without drug, vs NT1 = 0.36
Psmd11 (GeneID 69077) #2: combined effect class = low viability with and without drug; viability with doxorubicin, vs NT1 = 0.38; viability without drug, vs NT1 = 0.69
